# Results deposited as PubChem BioAssay AID1508597 (Cure First, 2020)
# Screen: 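Knock-downs altering ovarian cancer cell survival with or without PARP inhibitor rucaparib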 (primary screen)
# Cells: human ovarian carcinoma lines grown from tumours: OCI-P5x (papillary serous) and OCI-C5x (clear cell)
# Reagent: siRNA pool against human genes, 1.25 pmol siRNA per well
# Timing: 72 h or 96 h, depending on the cell culture
# Challenge: rucaparib 20 µM (about IC30) or vehicle, present until read-out
# Rucaparib or vehicle: Vehicle
# Cell line: OCI-P5x (serous)
# Detection: 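Luminescent ATP-based viability assay read 72 or 96 h after transfection, depending on culture, given as normalised percent viability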
# Scale: viability, normalised: higher = more viable cells remaining
# Call rule: 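a well counts as a hit if its normalised viability is under 80 percent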
# Meaning of the calls: active = viability under 80%; inactive = viability 80% or more
# This is an unselected part of the about 2,100 reagents, under one of the conditions tested. 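Calls flag viability under 80% in either arm, not effects specific to rucaparib; the reference for percent is not stated.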 A reagent listed more than once was tested more than once; the source does not tell the runs apart. Not stated in the record: the 100% reference.
The first 2 entries as a preview:
target,technical replicate,"viability, normalised (%)",call
"FNTB (farnesyltransferase, CAAX box, subunit beta)",1,55.3,active
"FNTB (farnesyltransferase, CAAX box, subunit beta)",2,50.4,active

The listing, from the start:
target,technical replicate,"viability, normalised (%)",call
"FNTB (farnesyltransferase, CAAX box, subunit beta)",1,55.3,active
"FNTB (farnesyltransferase, CAAX box, subunit beta)",2,50.4,active
"FNTB (farnesyltransferase, CAAX box, subunit beta)",3,50.3,active
TDRKH (tudor and KH domain containing),1,65.2,active
TDRKH (tudor and KH domain containing),2,74.3,active
TDRKH (tudor and KH domain containing),3,98.7,inactive
CAMK1 (calcium/calmodulin dependent protein kinase I),1,94.6,inactive
CAMK1 (calcium/calmodulin dependent protein kinase I),2,99.4,inactive
CAMK1 (calcium/calmodulin dependent protein kinase I),3,85.3,inactive
THOC1 (THO complex subunit 1),1,71.8,active
THOC1 (THO complex subunit 1),2,66.7,active
THOC1 (THO complex subunit 1),3,66.5,active
PRMT5 (protein arginine methyltransferase 5),1,60.2,active
PRMT5 (protein arginine methyltransferase 5),2,64.3,active
PRMT5 (protein arginine methyltransferase 5),3,75.2,active
TBL1X (transducin beta like 1 X-linked),1,70,active
TBL1X (transducin beta like 1 X-linked),2,73,active
TBL1X (transducin beta like 1 X-linked),3,83.7,inactive
BRCA1 (BRCA1 DNA repair associated),1,57.7,active
BRCA1 (BRCA1 DNA repair associated),1,66.2,active
BRCA1 (BRCA1 DNA repair associated),2,59.7,active
BRCA1 (BRCA1 DNA repair associated),2,57.6,active
BRCA1 (BRCA1 DNA repair associated),3,63.6,active
BRCA1 (BRCA1 DNA repair associated),3,72.7,active
DDB2 (damage specific DNA binding protein 2),1,57,active
DDB2 (damage specific DNA binding protein 2),1,62.1,active
DDB2 (damage specific DNA binding protein 2),1,89.3,inactive
DDB2 (damage specific DNA binding protein 2),2,72.6,active
DDB2 (damage specific DNA binding protein 2),2,61.7,active
DDB2 (damage specific DNA binding protein 2),2,71.5,active
DDB2 (damage specific DNA binding protein 2),3,89.7,inactive
DDB2 (damage specific DNA binding protein 2),3,62.8,active
DDB2 (damage specific DNA binding protein 2),3,61,active
CDKL3 (cyclin dependent kinase like 3),1,77.2,active
CDKL3 (cyclin dependent kinase like 3),2,82.3,inactive
CDKL3 (cyclin dependent kinase like 3),3,76.9,active
DHX29 (DExH-box helicase 29),1,62.6,active
DHX29 (DExH-box helicase 29),2,60.6,active
DHX29 (DExH-box helicase 29),3,63.2,active
